PubChem BioAssay AID652243 | Drosophila RNAi Screening Center – 2013
In all, the deposit lists about 24,000 reagents; below is a random part of those with a known target gene and a result. Of all reagents, 246 (1%) were called active. 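Plates not normalised; calls are printed but the firefly/Renilla ratio behind them is not deposited; fold cut for lowering reported inconsistently.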 Raw values are not corrected between plates. Not given: the amount of reagent.

Test: 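Fly regulators of androgen-dependent reporter output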 (primary screen)
Cell system: Drosophila S2R+ cells
Reagent: long dsRNA against Drosophila genes
Time to read-out: 72 h (48 h, then 24 h hormone)
Challenge: synthetic androgen R1881 at 10 nM for 24 h
Measured: 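Per-well raw luminescence of the androgen-driven firefly reporter and of the Renilla control, two replicates each, without normalisation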
Scale: firefly reporter light: higher = more light from androgen-responsive reporter; Renilla control light: higher = more constitutive control signal (cell number, transfection)
Hit rule: 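Hit when the log firefly-to-Renilla ratio dropped or increased by a fixed fold versus the mean of GFP or LacZ controls across duplicate plates; lowering cut given as 1.5 and as 3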
Meaning of the calls: active = hit: reporter lowered or raised; inactive = no hit

no.	gene knocked down	amplicon	firefly reporter light, replicate 1	firefly reporter light, replicate 2	Renilla control light, replicate 1	Renilla control light, replicate 2	Outcome
1	to	DRSC17086	1.76e5	2.39e5	2.41e6	2.49e6	inactive
2	to	DRSC29075	4.26e5	4.91e5	1.32e6	1.30e6	inactive
3	Trs20	DRSC10489	2.15e5	1.47e5	1.83e6	1.45e6	inactive
4	CG7791	DRSC04891	1.19e6	7.30e5	1.33e6	1.27e6	inactive
5	TwdlL	DRSC16042	1.21e5	94825	9.24e5	7.74e5	inactive
6	tyf	DRSC18382	1.87e5	1.17e5	3.01e6	2.08e6	inactive
7	tyf	DRSC26245	1.23e5	1.29e5	5.37e5	5.01e5	inactive
8	IntS9	DRSC10493	27923	26177	3.70e5	3.00e5	inactive
9	IntS9	DRSC28991	5.50e5	4.17e5	1.32e6	1.35e6	inactive
10	CG33281	DRSC00421	91742	73179	7.07e5	5.55e5	inactive
11	Acph-1	DRSC14103	1.99e5	1.61e5	2.03e6	2.13e6	inactive
12	Acph-1	DRSC36591					inactive
13	CG15177	DRSC12557	91444	62662	1.20e6	8.91e5	inactive
14	CG15177	DRSC24687	8.27e5	9.88e5	5.96e5	8.07e5	inactive
15	Hpr1	DRSC12296	21470	48863	2.40e5	4.60e5	inactive
16	CG3491	DRSC01934	94925	1.17e5	1.13e6	1.35e6	inactive
17	CG5886	DRSC15908	96690	81142	6.44e5	6.01e5	inactive
18	CG8907	DRSC16453	29510	64191	3.47e5	4.84e5	inactive
19	CG8907	DRSC27500	2.38e5	2.48e5	6.16e5	8.41e5	inactive
20	asRNA:CR31084	DRSC21649	8.86e5	7.66e5	2.30e6	1.61e6	inactive
21	X11Lbeta	DRSC18156	1.82e5	1.33e5	2.43e6	2.60e6	inactive
22	X11Lbeta	DRSC18158	5.32e5	5.09e5	4.14e6	4.17e6	inactive
23	X11Lbeta	DRSC29533	2.22e5	2.90e5	4.57e5	4.57e5	inactive
24	CG14207	DRSC19562	75862	1.03e5	6.68e5	7.67e5	inactive
25	CG14207	DRSC19563	1.45e5	1.50e5	4.32e5	2.30e5	inactive
26	grn	DRSC16961	78013	41535	1.34e6	1.30e6	inactive
27	grn	DRSC25829	3.05e5	3.67e5	1.06e6	8.17e5	inactive
28	htk	DRSC20029	2.02e5	64969	1.32e6	5.11e5	active
29	htk	DRSC20031	54725	1.04e5	7.15e5	9.89e5	inactive
30	htk	DRSC27508	2.00e5	2.04e5	7.94e5	1.12e6	active
31	Ugt302E1	DRSC15635	2.60e5	2.78e5	4.14e6	4.68e6	inactive
32	Ugt302E1	DRSC29326	5.13e5	4.25e5	1.34e6	1.34e6	inactive
33	Fum1	DRSC18344	5.79e5	5.48e5	2.25e6	1.66e6	inactive
34	Fum1	DRSC27406	5.29e5	4.62e5	7.68e5	8.63e5	inactive
35	G9a	DRSC18619	2.57e5	3.17e5	3.05e6	2.40e6	inactive
36	Obp50d	DRSC05483	1.64e5	1.46e5	3.76e5	3.27e5	inactive
37	CG4313	DRSC18514	75103	67702	5.12e5	4.71e5	inactive
38	CG4313	DRSC24627	5.61e5	8.44e5	1.00e6	1.06e6	inactive
39	gro	DRSC16962	58125	77831	6.01e5	5.77e5	inactive
40	MED24	DRSC10944	1.16e5	1.56e5	2.14e6	1.82e6	inactive

6 entries from above, reduced to “Renilla control light, replicate 1”:
htk [DRSC27508]	7.94e5
Ugt302E1 [DRSC15635]	4.14e6
Ugt302E1 [DRSC29326]	1.34e6
Fum1 [DRSC18344]	2.25e6
Fum1 [DRSC27406]	7.68e5
G9a [DRSC18619]	3.05e6
